Data: PubChem BioAssay AID743255 (National Center for Advancing Translational Sciences (NCATS), 2014)
Among all 390,000 compounds or so, about 910 (0.23%) were called active. Inconclusive results, whose numbers are uncertain, are shown with a selection of clear calls. Calls follow the shape of the dose curve; as a rule, active = well fitted inhibition curve with a large enough effect; inconclusive = small, poorly fitted or top-dose-only effect; inactive = no such curve, though single readings can be large or run the other way. A potency beside an inconclusive call is a rough fit, not a confirmed value.

Chains of the proteins cited; added tags and fusions are not shown. Lines headed by an entry give the natural chain unless they say otherwise; changes in a name come on top.
UniProt O94782: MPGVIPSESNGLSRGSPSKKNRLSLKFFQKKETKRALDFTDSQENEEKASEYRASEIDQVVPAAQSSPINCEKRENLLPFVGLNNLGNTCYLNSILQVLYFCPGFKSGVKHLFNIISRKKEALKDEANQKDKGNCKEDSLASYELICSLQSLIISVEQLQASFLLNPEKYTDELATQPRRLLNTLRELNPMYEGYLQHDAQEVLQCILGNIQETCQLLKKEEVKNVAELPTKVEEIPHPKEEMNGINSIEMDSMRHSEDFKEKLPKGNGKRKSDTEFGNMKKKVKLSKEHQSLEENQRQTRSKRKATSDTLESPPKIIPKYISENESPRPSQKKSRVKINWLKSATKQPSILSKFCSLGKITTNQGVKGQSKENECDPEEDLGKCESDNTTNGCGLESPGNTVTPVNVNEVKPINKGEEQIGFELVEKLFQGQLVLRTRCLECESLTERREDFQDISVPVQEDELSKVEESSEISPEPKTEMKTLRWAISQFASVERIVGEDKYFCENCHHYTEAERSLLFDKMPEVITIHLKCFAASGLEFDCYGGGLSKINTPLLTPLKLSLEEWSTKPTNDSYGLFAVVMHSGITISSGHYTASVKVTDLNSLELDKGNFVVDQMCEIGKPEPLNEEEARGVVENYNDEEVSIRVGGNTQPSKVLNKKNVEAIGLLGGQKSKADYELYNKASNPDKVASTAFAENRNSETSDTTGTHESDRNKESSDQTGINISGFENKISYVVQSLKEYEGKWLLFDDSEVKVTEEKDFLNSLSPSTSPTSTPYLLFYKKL

biological target: Ubiquitin carboxyl-terminal hydrolase 1 (Homo sapiens) (UniProt O94782); test: Inhibitors of USP1/UAF1: Primary Screen; settings: recombinant USP1/UAF1, Ub-Rhodamine cleavage fluorescence; series mostly up to 57.1 µM; also: nearly all actives have a fitted effect of over 60% in size
How it was run: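 USP1/UAF1 complex (1 nM) preincubated 15 min at room temperature with compound, then Ub-Rho substrate (150 nM final) added. Kinetic fluorescence at 480/540 nm over 6 reads at 60 s intervals; 50 mM HEPES pH 7.8, 0.5 mM EDTA, 0.1 mg/ml BSA, 1 mM TCEP, 0.01% Tween-20.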
Potency is read from the fitted curve at half-maximal effect.

Row | SMILES | Potency
1 | CCN(CC)c1ccc2cc(C=O)c(=O)oc2c1 | active: 15.8 µM
2 | COc1cccc(N2CCN(C(=O)C3Cc4ccccc4N3C(C)=O)CC2)c1 (stereo unspecified) | inconclusive: 79.4 µM [inhibitor, partial curve, poor fit]
3 | O=C(Cn1cc(S(=O)(=O)N2CCCC2)c(S(=O)(=O)N2CCCC2)c1)Nc1ccccc1 | inconclusive: 0.282 µM [inhibitor, full curve, poor fit]
4 | NS(=O)(=O)c1ccc(CCNC(=O)COC(=O)/C=C/c2cc(Br)ccc2F)cc1 | inconclusive: 2.51 µM [inhibitor, full curve, poor fit]
5 | O=S(=O)(NCc1ccc(F)cc1)c1ccc(Br)cc1Br | inconclusive: 0.316 µM [inhibitor, full curve, poor fit]
6 | C=CCOC(=O)C(=O)/C=C/c1ccc2c(c1)Cc1ccccc1-2 | inactive
7 | c1ccc(Oc2cccc(CN3CCCCC3)c2)cc1 | inconclusive: 39.8 µM [inhibitor, partial curve, poor fit]
8 | O=C(COc1ccc2c3c(c(=O)oc2c1)CCC3)NCc1cccnc1 | inconclusive: 15.8 µM [inhibitor, partial curve, poor fit]
9 | CS(=O)(=O)c1ccc(-c2sc3ccccc3c2C(=O)N2CCN(c3ccc(F)cc3)CC2)cc1 | inconclusive: 3.55 µM [inhibitor, full curve, poor fit]
10 | O=C(N/N=C/c1cc(Cl)ccc1O)c1ccncc1 | inactive
11 | COc1ccccc1C1=NC(c2ccc(C)cc2)N=C1C (stereo unspecified) | inactive
12 | Nc1c(NCCN2CCOCC2)c2ccccc2oc1=O | inconclusive: 28.2 µM [inhibitor, partial curve]
13 | Cc1cc(NC2CCCC2)n2nc(C)c(-c3ccccc3)c2n1 | inconclusive: 35.5 µM [inhibitor, partial curve]
14 | Cc1ccc(CSCC2Nc3ccc(C(=O)N4CCN(c5ccc(F)cc5)CC4)cc3NC2=O)cc1 (stereo unspecified) | inconclusive: 44.7 µM [inhibitor, partial curve, poor fit]
15 | COc1ccc(NC(=O)CCNC(=O)N2CC(=O)Nc3ccccc32)cc1OC | inconclusive: 0.112 µM [inhibitor, full curve, poor fit]
16 | Cc1ccc(-c2csc(NC(=O)c3cccc(C)c3)c2C(=O)O)cc1 | inactive
17 | O=C(CN1C(=O)S/C(=C/c2ccc(N3CCOCC3)cc2)C1=O)N1CCOCC1 | inconclusive: 44.7 µM [inhibitor, partial curve, poor fit]
18 | CCOc1ccccc1/C=C/c1onc(C)c1S(=O)(=O)N1CCC(C(=O)NC(C)C)CC1 | inconclusive: 50.1 µM [inhibitor, partial curve, poor fit]
19 | COc1ccccc1N1CCN(C(=O)c2ccc(-c3nc4ccccc4s3)o2)CC1 | inconclusive: 50.1 µM [inhibitor, partial curve, poor fit]
20 | CCOc1c(Cl)cc(CNc2ccc(S(N)(=O)=O)cc2)cc1OC | inactive
21 | O=C(CC1C(=O)NCCN1C/C=C/c1ccccc1)NCCc1cccnc1 (stereo unspecified) | inconclusive: 17.8 µM [inhibitor, partial curve]
22 | N/C(=N\N=C/c1ccc(F)cc1)N/N=C\c1ccc(F)cc1 | inconclusive: 50.1 µM [inhibitor, partial curve, poor fit]

Row | SMILES | Potency
23 | COc1ccc(NC(=O)CSC2=Nc3ccccc3C3=NC(CCC(=O)NCc4cccs4)C(=O)N23)cc1 (stereo unspecified) | inconclusive: 20 µM [inhibitor, partial curve]
24 | CCOC(=O)[C@H]1[C@H]2COc3ccc(Cl)cc3[C@@H]2N2C(=O)CN(CC3CCCO3)C(=O)[C@@]12C (stereo partly specified) | inconclusive: 14.1 µM [inhibitor, partial curve]
25 | COc1cc(CNc2ccc(N3CCN(C(C)=O)CC3)cc2)ccc1OCc1ccc(F)cc1 | inactive
26 | N#CCCN(C(=O)COC(=O)/C=C/c1cccs1)c1ccccc1 | inconclusive: 50.1 µM [inhibitor, partial curve, poor fit]
27 | COc1ccc(Cc2noc(CN3CCN(C4CCc5ccccc5C4)CC3)n2)cc1OC (stereo unspecified) | inconclusive: 28.2 µM [inhibitor, partial curve]
28 | O=C(O)C1Nc2c(O)cc(Cl)c([N+](=O)[O-])c2C2C=CCC12 (stereo unspecified) | inconclusive: 31.6 µM [inhibitor, partial curve]
29 | COc1cccc2sc3ccc(NCCC4CCCN4C)cc3c(=O)c12 (stereo unspecified) | inactive
30 | CC1CCCN(C2=C(NS(=O)(=O)c3ccc(Cl)cc3)C(=O)c3ccccc3C2=O)C1 (stereo unspecified) | inconclusive: 35.5 µM [inhibitor, partial curve, poor fit]
31 | Cc1nnc(N2CCC(C(=O)Nc3ccc(F)cc3)CC2)c2nn(-c3ccc(Cl)cc3)c(C)c12 | inconclusive: 89.1 µM [inhibitor, partial curve, poor fit]
32 | COc1ccc2c(c1)c(=Cc1ccc(N(C)C)cc1)c1cc(-c3ccccc3)[n+](C)n12 | inconclusive: 28.2 µM [inhibitor, partial curve]
33 | C[n+]1cccc2c(Br)ccc([O-])c21 | active: 5.01 µM
34 | COc1ccc(C2(C)NC(=O)N(CC(=O)N(c3ccccc3)C3CCS(=O)(=O)C3)C2=O)cc1 (stereo unspecified) | inconclusive: 56.2 µM [inhibitor, partial curve, poor fit]
35 | CCCCOC(=O)/C(C#N)=C/c1ccc(-c2cccc(C(F)(F)F)c2)o1 | inconclusive: 17.8 µM [inhibitor, single point]
36 | CCOc1ccc(-c2nonc2NC(=O)c2ccco2)cc1 | inconclusive: 39.8 µM [inhibitor, partial curve]
37 | Cc1c(C(=O)O)sc(=S)n1CCOc1ccccc1 | inconclusive: 5.62 µM [inhibitor, partial curve, poor fit]
38 | Cc1ccc(S(=O)(=O)NC2=NCN(C)CN2)cc1[N+](=O)[O-] | inconclusive: 0.282 µM [inhibitor, full curve, poor fit]
39 | CCN(CC)CCCCNc1ncc2cc(-c3cc(OC)cc(OC)c3)c(NC(=O)NC(C)(C)C)nc2n1 | inactive
40 | COc1cc(C2CC(=O)Nc3c2c(C)nn3-c2nncc(-c3ccc(C)cc3)n2)cc(OC)c1OC (stereo unspecified) | inconclusive: 0.708 µM [inhibitor, full curve]
41 | C=CCNC(=S)NC(=O)c1csc([N+](=O)[O-])c1 | inconclusive: 44.7 µM [inhibitor, partial curve, poor fit]
42 | COc1ccc(N2CSC3=C(C#N)C(c4cc(OC)c(OC)cc4OC)CC(=O)N3C2)c(OC)c1 (stereo unspecified) | inconclusive: 44.7 µM [inhibitor, partial curve]
43 | CCN(CC)CCOC(=O)c1c(C)oc2ccc(OC)cc12 | inactive
44 | Cc1ccc(S(=O)(=O)Nc2nc(N)n(-c3ccccc3)n2)cc1 | inactive

Another view of 16 compounds above.
Row	SMILES	Potency
23	COc1ccc(NC(=O)CSC2=Nc3ccccc3C3=NC(CCC(=O)NCc4cccs4)C(=O)N23)cc1 (stereo unspecified)	inconclusive: 20 µM [inhibitor, partial curve]
24	CCOC(=O)[C@H]1[C@H]2COc3ccc(Cl)cc3[C@@H]2N2C(=O)CN(CC3CCCO3)C(=O)[C@@]12C (stereo partly specified)	inconclusive: 14.1 µM [inhibitor, partial curve]
25	COc1cc(CNc2ccc(N3CCN(C(C)=O)CC3)cc2)ccc1OCc1ccc(F)cc1	inactive
26	N#CCCN(C(=O)COC(=O)/C=C/c1cccs1)c1ccccc1	inconclusive: 50.1 µM [inhibitor, partial curve, poor fit]
27	COc1ccc(Cc2noc(CN3CCN(C4CCc5ccccc5C4)CC3)n2)cc1OC (stereo unspecified)	inconclusive: 28.2 µM [inhibitor, partial curve]
28	O=C(O)C1Nc2c(O)cc(Cl)c([N+](=O)[O-])c2C2C=CCC12 (stereo unspecified)	inconclusive: 31.6 µM [inhibitor, partial curve]
29	COc1cccc2sc3ccc(NCCC4CCCN4C)cc3c(=O)c12 (stereo unspecified)	inactive
30	CC1CCCN(C2=C(NS(=O)(=O)c3ccc(Cl)cc3)C(=O)c3ccccc3C2=O)C1 (stereo unspecified)	inconclusive: 35.5 µM [inhibitor, partial curve, poor fit]
31	Cc1nnc(N2CCC(C(=O)Nc3ccc(F)cc3)CC2)c2nn(-c3ccc(Cl)cc3)c(C)c12	inconclusive: 89.1 µM [inhibitor, partial curve, poor fit]
32	COc1ccc2c(c1)c(=Cc1ccc(N(C)C)cc1)c1cc(-c3ccccc3)[n+](C)n12	inconclusive: 28.2 µM [inhibitor, partial curve]
33	C[n+]1cccc2c(Br)ccc([O-])c21	active: 5.01 µM
34	COc1ccc(C2(C)NC(=O)N(CC(=O)N(c3ccccc3)C3CCS(=O)(=O)C3)C2=O)cc1 (stereo unspecified)	inconclusive: 56.2 µM [inhibitor, partial curve, poor fit]
35	CCCCOC(=O)/C(C#N)=C/c1ccc(-c2cccc(C(F)(F)F)c2)o1	inconclusive: 17.8 µM [inhibitor, single point]
36	CCOc1ccc(-c2nonc2NC(=O)c2ccco2)cc1	inconclusive: 39.8 µM [inhibitor, partial curve]
37	Cc1c(C(=O)O)sc(=S)n1CCOc1ccccc1	inconclusive: 5.62 µM [inhibitor, partial curve, poor fit]
38	Cc1ccc(S(=O)(=O)NC2=NCN(C)CN2)cc1[N+](=O)[O-]	inconclusive: 0.282 µM [inhibitor, full curve, poor fit]

Later entries:

Row | SMILES | Potency
45 | O=C(CSc1nccc(-c2cccs2)n1)Nc1cccc(Cl)c1 | inconclusive: 50.1 µM [inhibitor, single point]
46 | COc1ccccc1NC(=O)CCCc1nnc2n(C)c(=O)c3sccc3n12 | inconclusive: 50.1 µM [inhibitor, single point]
47 | Cc1ccc(C(=O)N/N=C\C=C\c2ccc(Br)cc2)cn1 | inactive
48 | N#Cc1c(Cl)nsc1NC(=O)c1ccccc1 | inactive
49 | CN(C)/C=C/C1=CC(=O)CC(C)(C)C1 | inconclusive: 28.2 µM [inhibitor, partial curve]
50 | COc1ccc(CNCC(O)(c2ccccc2)c2ccc(F)cc2)cc1OC (stereo unspecified) | inactive
51 | COC(=O)C1=C(C)NC(=O)/C1=C\c1cc(C)n(-c2cc(C)cc(C)c2)c1C | inactive
52 | COc1ccc(NC(=O)CN(c2cc(C)cc(C)c2)S(=O)(=O)c2c(C)noc2C)cc1Cl | inconclusive: 11.2 µM [inhibitor, partial curve, poor fit]
53 | O=C(Nc1ccccc1N1CCOCC1)c1ccc2ccccc2n1 | inconclusive: 31.6 µM [inhibitor, partial curve]
54 | CCn1nc(C(=O)NCc2nnc3ccccn23)c2ccccc2c1=O | inactive
55 | CC(=O)Nc1ccc(/C(N=Nc2ccccc2)=N/N=C(N)N)cc1 | inactive
56 | Cc1ccc(-n2nc(C(=O)O)cc2-c2ccc(Cl)cc2)cc1 | inconclusive: 31.6 µM [inhibitor, partial curve]
57 | CCc1ccc(NC(=O)CC2C(=O)N(c3cccc(OC)c3)C(=O)N2C2CCCC2)cc1 (stereo unspecified) | inactive
58 | CSc1nc(N)c2c(n1)N(C)C=NS2(=O)=O | inconclusive: 7.08 µM [inhibitor, single point]
59 | COc1ccc(-c2c(C#Cc3ccsc3)c3cc(-c4ccc5c(c4)OCO5)ccc3n2C)cc1 | inconclusive: 0.355 µM [inhibitor, full curve]
60 | Nc1ccc(O)c2c(=O)cc(-c3ccccc3Cl)oc12 | inconclusive: 3.98 µM [inhibitor, full curve]
61 | O=C(CCN1C(=O)/C(=C/c2ccc(Cl)cc2)SC1=S)Nc1ccc(C(=O)O)cc1 | inactive
62 | Cc1cc(C)cc(-n2c(C)cc(C(=S)N3CCOCC3)c2C)c1 | inactive
63 | O=C(CN1C(=O)/C(=C\c2ccco2)SC1=S)Nc1ccc(O)cc1C(=O)O | inconclusive: 35.5 µM [inhibitor, partial curve]
64 | CCOc1cc([N+](=O)[O-])cc(/C=C2/NC(=O)N(Cc3ccccc3F)C2=O)c1O | inconclusive: 31.6 µM [inhibitor, partial curve]
65 | Cc1nc(N2CCC(C)CC2)c2c(C)c(C(=O)Nc3ccc4c(c3)OCCO4)sc2n1 | inconclusive: 70.8 µM [inhibitor, partial curve, poor fit]
66 | COC(=O)c1ccc(NC(=O)c2nc(-c3ccc(Cl)cc3)n3c2CCCCC3)cc1 | inconclusive: 7.94 µM [inhibitor, partial curve]
